Results are given in words; binding and its absence hold for the method and conditions named. Some entries that bind do so weakly or less than the wild type.
Target: human IL-5Rα expressed on the K562/IL-5Rα cell line (human) (UniProt Q01344)
Assay: flow cytometry on K562/IL-5Rα cells, 50 nM antibody, Alexa Fluor 647 anti-human Fc

Amino acid sequences for entries named in this document (tags omitted). Residues count along the entry.
UniProt Q01344, residues 21-420: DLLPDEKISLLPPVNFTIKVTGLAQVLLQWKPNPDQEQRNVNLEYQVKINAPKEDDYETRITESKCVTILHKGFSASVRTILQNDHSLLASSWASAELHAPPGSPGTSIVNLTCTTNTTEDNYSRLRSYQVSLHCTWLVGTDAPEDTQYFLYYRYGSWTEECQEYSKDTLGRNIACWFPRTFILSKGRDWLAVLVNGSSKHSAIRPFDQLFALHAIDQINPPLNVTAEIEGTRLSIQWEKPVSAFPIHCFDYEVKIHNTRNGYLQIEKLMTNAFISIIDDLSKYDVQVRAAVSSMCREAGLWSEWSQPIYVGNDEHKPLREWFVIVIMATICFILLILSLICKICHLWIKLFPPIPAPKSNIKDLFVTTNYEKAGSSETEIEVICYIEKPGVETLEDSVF

B1: 5R65.7 anti-IL-5Rα monoclonal antibody (antibody, V domains shown)
VH: QVQLVQSGAEVKKPGSSVKVSCKASGYTFTSYWINWVRQAPGQGLEWIGHIYPNKNENYYNHKFKDKATLTVDKSTNTAYMELSSLRSEDTAVYYCTREFYGRQYYQAMDYWGQGTTLTVSS
VL: DIQMTQSPSTLSASVGDRVTITCKASQNVGTAVAWYQQKPGKAPKLLIYWASTRHTGVPDRFSGSGSGTDFTLTISSLQPDDFATYYCQQFGRYPYTFGSGTKVEVK
For B1, the binding was “binds”.
